{"source": "the supplement of paper PMC5949888", "note": "± gives the standard deviation of the averaged measurements. Most values lie at the floor of the assay. Slopes are relative: functional sequences can read slightly below zero."}
{"test_system": "Saccharomyces cerevisiae PS128 hsf1 delta, HSF1(1-493) fusion", "experiment": "growth estimate (transactivation domain function in HSF1 fusion, heat-shock survival) (a.u. (slope of normalised read count over time)); higher = stronger growth at 37°C, i.e. more transactivation activity", "conditions": "library: random library"}
{"substance": "HDPMSVLLS", "growth estimate": "< -0.25"}
{"substance": "LSDFNVCQQVT", "growth estimate": "< -0.25"}
{"substance": "PNRDCWR", "growth estimate": -0.25}
{"substance": "KQRDLAVTLVTMCVRPGLSG", "growth estimate": -0.245}
{"substance": "TLTPGWTCPVSSDTGISVCG", "growth estimate": -0.246}
{"substance": "GGPVRFREAEKKYLDPA", "growth estimate": "< -0.25"}
{"substance": "CIEGGFRLKWIKGNTY", "growth estimate": "< -0.25"}
{"substance": "VTCYTRADRGKLGAWRHVSE", "growth estimate": "< -0.25"}
{"substance": "PVL", "growth estimate": "-0.248 ± 0.0034"}
{"substance": "SGL", "growth estimate": "< -0.25"}
{"substance": "GGHRPPSSRRLYYEQCNLHR", "growth estimate": "< -0.25"}
{"substance": "RSLSRRHGQGNVRSYS", "growth estimate": "< -0.25"}
{"substance": "PDAPCSRGCQDVVGSLFHLA", "growth estimate": "< -0.25"}
{"substance": "TTLLLASSLCHRAEWDRAVG", "growth estimate": "< -0.25"}
{"substance": "ERVYRMA", "growth estimate": "< -0.25"}
{"substance": "EVLCTCLTGLFAREGRPLRD", "growth estimate": "< -0.25"}
{"substance": "ILLRGSQGRTGSSARLWQVH", "growth estimate": "< -0.25"}
{"substance": "NRSGWNALCG", "growth estimate": "< -0.25"}
{"substance": "TPSIKREAIA", "growth estimate": "< -0.25"}
{"substance": "STRGAIHNPGPHLRQGLLN", "growth estimate": "< -0.25"}
{"substance": "PITGRPPRGAVCSMPLPAYA", "growth estimate": "< -0.25"}
{"substance": "LQAPSSAIGNSA", "growth estimate": "< -0.25"}
{"substance": "LRRPTRG", "growth estimate": "< -0.25"}
{"substance": "TRACSGYC", "growth estimate": "< -0.25"}
{"substance": "VTMGLRRSADVLHNPVYGAV", "growth estimate": "< -0.25"}
{"substance": "YRSVGV", "growth estimate": "< -0.25"}
{"substance": "QGRVSTCQTLDKARYSASPL", "growth estimate": "< -0.25"}
{"substance": "PMFQAGEGMRDSDGLMGTSE", "growth estimate": "< -0.25"}
{"substance": "SVPACDGSFRGPHRSTAHRV", "growth estimate": "< -0.25"}
{"substance": "FCTAGWS", "growth estimate": "< -0.25"}
{"substance": "VSYRP", "growth estimate": -0.145}
{"substance": "GMQGLLLQLMPVAMGHRPYN", "growth estimate": "< -0.25"}
{"substance": "DCATVPLCHFTADDCRRAFH", "growth estimate": "< -0.25"}
{"substance": "PPLRLCRN", "growth estimate": "< -0.25"}
{"substance": "QVIHPVRARRSCAPMESPPT", "growth estimate": "< -0.25"}
{"substance": "RSYTIDRFGSHL", "growth estimate": "< -0.25"}
{"substance": "LEPE", "growth estimate": "< -0.25"}
{"substance": "IWPPSSGGLTGCEFSSPFNL", "growth estimate": "< -0.25"}
{"substance": "RTRKDRGHIWEERSLSR", "growth estimate": "< -0.25"}
{"substance": "IHDTDFRRGRATRSGKNSAS", "growth estimate": "< -0.25"}
{"substance": "KVGEGKCQGFTPRESYNDEK", "growth estimate": "< -0.25"}
{"substance": "KSHHEGSIPSGRDSSPALVA", "growth estimate": "< -0.25"}
{"substance": "AVGHHQGVASKLRASPVTSI", "growth estimate": "< -0.25"}
{"substance": "TVIFQTL", "growth estimate": "< -0.25"}
{"substance": "SPFKGKPSTGLEGCRVVLAL", "growth estimate": "< -0.25"}
{"substance": "LARIFSRVP", "growth estimate": 0.0282}
{"substance": "WSGGATQSLS", "growth estimate": "< -0.25"}
{"substance": "PSSTCR", "growth estimate": "< -0.25"}
{"substance": "ITLLGSVMRGTLIGLRFLIY", "growth estimate": "< -0.25"}
{"substance": "PEGVFSWRPR", "growth estimate": "< -0.25"}
{"substance": "TDRKSHAGVQRSRFYFCSLS", "growth estimate": "< -0.25"}
{"substance": "IYSKRLRQVVDTTLTVTSLR", "growth estimate": "< -0.25"}
{"substance": "KTSIGYWSVVALLPDTYRPC", "growth estimate": "< -0.25"}
{"substance": "HKEPVSTKRYL", "growth estimate": "< -0.25"}
{"substance": "GLRT", "growth estimate": "< -0.25"}
{"substance": "PNGLFSHGEGHAVTESNGST", "growth estimate": "< -0.25"}
{"substance": "QVTFARAGYPHKVICRLEHP", "growth estimate": "< -0.25"}
{"substance": "PSRSAAWDQRLIGDIGIPAH", "growth estimate": "< -0.25"}
{"substance": "MRCASRNHEYHIVMFVEAQG", "growth estimate": "< -0.25"}
{"substance": "RWFSEKWVRELGPWLAHALL", "growth estimate": "< -0.25"}
{"substance": "GALHWLNGRPWRR", "growth estimate": "< -0.25"}
{"substance": "ELIPASSSRWA", "growth estimate": "< -0.25"}
{"substance": "LRCDSDGESASCE", "growth estimate": "< -0.25"}
{"substance": "GDQTQQP", "growth estimate": "< -0.25"}
{"substance": "YSSLTIGYLALNFYCKTVCC", "growth estimate": "< -0.25"}
{"substance": "RPIRREVLRQSIATTLVPIA", "growth estimate": -0.197}
{"substance": "SSRCSAGEMPLVVGAARSGV", "growth estimate": "< -0.25"}
{"substance": "GTWGPRCIRCI", "growth estimate": "< -0.25"}
{"substance": "YLPPDPAQDVTGKSMSHRRG", "growth estimate": "< -0.25"}
{"substance": "LEAR", "growth estimate": "< -0.25"}
{"substance": "GLASKHMPNEGPRLNDLRHT", "growth estimate": "< -0.25"}
{"substance": "HPV", "growth estimate": "< -0.25"}
